Laboratory results published in patent US10376520B2, “Methods for the treatment of cardiovascular disorders” (Galapagos NV, priority 2015, dated 2019).

Tested on: RA patients
Assay: ApoA-I level (Selectra autoanalyzer), Study 4
Format: in vivo, human
Details: 4 weeks
Procedure: Randomized double-blind, placebo-controlled add on study in subjects with active RA who have an inadequate response to MTX monotherapy, in combination with methotrexate, administered for 4 weeks in the treatment of subjects with active rheumatoid arthritis who have an inadequate response to methotrexate alone.
Compound 1 (dosed as a [Compound 1:HCl:3H2O]) capsules administered orally in 30 mg, 75 mg, 150 mg, or 300 mg doses per day for 4 weeks.
ApoAI, and ApoB were measured on the Selectra autoanalyzer (Sopachem BV, 44-RI Straat 33, 4051 AP Ochten, The Netherlands). All assays were commercially available from DiaSys Diagnostic Systems GmbH, Alte Strasse 9, 65558 Holzheim, Germany.

O=C(Nc1nc2cccc(-c3ccc(CN4CCS(=O)(=O)CC4)cc3)n2n1)C1CC1 [Compound 1, cyclopropanecarboxylic acid {5-[4-(1,1-dioxo-thiomorpholin-4-ylmethyl)-phenyl]-[1,2,4]triazolo[1,5-a]pyridin-2yl}-amide]
ApoA-I level variation, t-test (30 mg q.d.): 0.2
ApoA-I level variation, t-test (75 mg q.d.): 0.008
ApoA-I level variation, t-test (150 mg q.d.): 0.2
ApoA-I level variation, t-test (300 mg q.d.): <0.0001

Some values come without a unit; they compare only within their column.
